The source of these data is the supplement of paper PMC10849652.

Sequences of proteins named here, by UniProt entry; tags and fusion partners are left off. A change or cut given only in a name is not applied to a line headed by its entry.
UniProt O00512: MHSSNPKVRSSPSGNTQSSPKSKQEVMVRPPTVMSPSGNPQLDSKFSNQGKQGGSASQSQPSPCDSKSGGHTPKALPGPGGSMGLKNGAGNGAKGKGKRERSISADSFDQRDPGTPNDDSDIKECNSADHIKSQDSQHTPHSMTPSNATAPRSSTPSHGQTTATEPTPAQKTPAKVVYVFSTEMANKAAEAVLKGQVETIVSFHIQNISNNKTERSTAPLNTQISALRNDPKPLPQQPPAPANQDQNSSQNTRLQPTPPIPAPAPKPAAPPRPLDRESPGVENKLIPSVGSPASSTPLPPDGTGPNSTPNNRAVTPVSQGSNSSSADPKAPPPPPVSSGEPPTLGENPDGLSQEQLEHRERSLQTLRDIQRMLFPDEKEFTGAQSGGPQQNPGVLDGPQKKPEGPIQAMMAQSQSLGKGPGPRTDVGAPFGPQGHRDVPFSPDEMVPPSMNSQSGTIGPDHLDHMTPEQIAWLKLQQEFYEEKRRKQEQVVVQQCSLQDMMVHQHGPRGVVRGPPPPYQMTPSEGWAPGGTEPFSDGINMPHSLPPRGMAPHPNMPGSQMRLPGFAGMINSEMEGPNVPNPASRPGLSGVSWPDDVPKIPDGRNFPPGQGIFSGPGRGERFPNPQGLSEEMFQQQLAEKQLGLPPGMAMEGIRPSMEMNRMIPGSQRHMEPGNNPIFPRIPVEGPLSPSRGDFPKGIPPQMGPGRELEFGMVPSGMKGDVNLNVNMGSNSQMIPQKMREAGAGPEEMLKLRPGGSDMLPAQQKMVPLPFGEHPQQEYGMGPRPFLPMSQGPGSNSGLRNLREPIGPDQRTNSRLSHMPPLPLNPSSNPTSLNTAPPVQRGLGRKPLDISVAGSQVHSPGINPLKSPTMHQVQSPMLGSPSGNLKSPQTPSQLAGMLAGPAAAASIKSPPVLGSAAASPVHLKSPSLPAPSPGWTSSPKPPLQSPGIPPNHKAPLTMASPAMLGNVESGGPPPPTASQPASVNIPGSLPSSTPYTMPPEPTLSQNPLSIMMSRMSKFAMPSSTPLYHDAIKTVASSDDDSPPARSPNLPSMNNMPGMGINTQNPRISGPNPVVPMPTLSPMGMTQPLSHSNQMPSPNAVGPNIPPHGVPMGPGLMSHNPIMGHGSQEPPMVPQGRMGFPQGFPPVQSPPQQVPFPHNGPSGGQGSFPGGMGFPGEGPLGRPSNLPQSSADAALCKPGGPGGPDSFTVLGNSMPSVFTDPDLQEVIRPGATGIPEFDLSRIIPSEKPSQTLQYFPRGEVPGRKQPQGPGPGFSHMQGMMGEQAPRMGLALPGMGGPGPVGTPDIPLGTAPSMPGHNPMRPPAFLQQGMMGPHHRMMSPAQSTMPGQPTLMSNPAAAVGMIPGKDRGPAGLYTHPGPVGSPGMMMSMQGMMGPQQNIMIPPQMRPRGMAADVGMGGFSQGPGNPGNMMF
UniProt Q9H6U6: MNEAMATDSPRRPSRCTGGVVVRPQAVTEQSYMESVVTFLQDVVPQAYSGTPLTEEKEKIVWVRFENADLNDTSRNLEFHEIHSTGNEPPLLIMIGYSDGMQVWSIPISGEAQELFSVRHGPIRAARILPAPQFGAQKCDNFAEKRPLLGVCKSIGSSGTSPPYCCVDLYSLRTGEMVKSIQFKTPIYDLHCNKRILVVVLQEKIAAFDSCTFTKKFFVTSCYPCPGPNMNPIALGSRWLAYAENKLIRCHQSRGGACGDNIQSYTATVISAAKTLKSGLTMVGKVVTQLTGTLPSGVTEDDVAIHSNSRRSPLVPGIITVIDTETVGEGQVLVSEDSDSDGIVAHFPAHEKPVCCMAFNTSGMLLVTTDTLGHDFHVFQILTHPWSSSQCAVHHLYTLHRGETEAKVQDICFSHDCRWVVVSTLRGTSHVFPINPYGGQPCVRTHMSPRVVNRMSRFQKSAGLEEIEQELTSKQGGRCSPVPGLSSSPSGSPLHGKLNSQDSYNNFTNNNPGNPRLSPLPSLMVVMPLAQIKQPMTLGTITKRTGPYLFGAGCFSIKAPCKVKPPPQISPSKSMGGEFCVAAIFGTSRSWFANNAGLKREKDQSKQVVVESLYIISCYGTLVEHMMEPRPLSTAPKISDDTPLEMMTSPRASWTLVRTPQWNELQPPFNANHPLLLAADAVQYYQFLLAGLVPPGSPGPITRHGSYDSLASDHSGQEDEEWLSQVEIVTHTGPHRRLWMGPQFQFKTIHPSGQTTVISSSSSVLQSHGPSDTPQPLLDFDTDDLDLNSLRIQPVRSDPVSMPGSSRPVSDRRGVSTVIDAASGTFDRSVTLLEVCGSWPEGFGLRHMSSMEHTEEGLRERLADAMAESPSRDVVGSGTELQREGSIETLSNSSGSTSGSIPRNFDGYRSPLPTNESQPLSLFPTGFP
UniProt Q6QNY0: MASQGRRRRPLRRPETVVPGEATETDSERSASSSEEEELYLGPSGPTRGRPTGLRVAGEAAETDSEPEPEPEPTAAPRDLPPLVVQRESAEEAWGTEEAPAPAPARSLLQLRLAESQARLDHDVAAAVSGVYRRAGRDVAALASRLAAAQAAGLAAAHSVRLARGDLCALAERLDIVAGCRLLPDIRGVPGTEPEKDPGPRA
UniProt Q9BUT1: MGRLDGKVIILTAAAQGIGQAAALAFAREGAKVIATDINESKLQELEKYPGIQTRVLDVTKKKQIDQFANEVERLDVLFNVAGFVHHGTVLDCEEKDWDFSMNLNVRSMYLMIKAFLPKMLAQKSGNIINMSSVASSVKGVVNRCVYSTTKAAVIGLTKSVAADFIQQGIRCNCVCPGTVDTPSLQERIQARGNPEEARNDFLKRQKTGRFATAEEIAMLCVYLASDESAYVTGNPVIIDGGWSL
UniProt Q9H0C5: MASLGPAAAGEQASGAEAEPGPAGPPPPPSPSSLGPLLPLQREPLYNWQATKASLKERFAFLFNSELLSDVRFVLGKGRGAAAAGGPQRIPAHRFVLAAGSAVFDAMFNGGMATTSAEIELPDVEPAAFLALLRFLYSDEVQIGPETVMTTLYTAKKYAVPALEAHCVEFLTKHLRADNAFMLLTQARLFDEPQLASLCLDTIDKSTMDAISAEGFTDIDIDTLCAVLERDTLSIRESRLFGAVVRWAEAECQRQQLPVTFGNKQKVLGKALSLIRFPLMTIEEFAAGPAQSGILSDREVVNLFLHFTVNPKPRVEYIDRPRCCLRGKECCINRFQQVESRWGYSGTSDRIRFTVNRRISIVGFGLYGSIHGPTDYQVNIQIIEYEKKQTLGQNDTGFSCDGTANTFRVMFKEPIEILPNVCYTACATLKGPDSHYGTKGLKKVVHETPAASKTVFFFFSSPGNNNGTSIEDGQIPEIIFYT
UniProt Q07817, whole entry, looked up: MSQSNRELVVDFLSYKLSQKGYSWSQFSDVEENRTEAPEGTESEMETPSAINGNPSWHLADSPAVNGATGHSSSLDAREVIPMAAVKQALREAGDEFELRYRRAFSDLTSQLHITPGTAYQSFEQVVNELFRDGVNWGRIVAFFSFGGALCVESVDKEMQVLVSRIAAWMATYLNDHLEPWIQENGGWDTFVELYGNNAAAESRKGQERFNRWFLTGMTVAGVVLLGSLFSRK
UniProt Q9NRL2: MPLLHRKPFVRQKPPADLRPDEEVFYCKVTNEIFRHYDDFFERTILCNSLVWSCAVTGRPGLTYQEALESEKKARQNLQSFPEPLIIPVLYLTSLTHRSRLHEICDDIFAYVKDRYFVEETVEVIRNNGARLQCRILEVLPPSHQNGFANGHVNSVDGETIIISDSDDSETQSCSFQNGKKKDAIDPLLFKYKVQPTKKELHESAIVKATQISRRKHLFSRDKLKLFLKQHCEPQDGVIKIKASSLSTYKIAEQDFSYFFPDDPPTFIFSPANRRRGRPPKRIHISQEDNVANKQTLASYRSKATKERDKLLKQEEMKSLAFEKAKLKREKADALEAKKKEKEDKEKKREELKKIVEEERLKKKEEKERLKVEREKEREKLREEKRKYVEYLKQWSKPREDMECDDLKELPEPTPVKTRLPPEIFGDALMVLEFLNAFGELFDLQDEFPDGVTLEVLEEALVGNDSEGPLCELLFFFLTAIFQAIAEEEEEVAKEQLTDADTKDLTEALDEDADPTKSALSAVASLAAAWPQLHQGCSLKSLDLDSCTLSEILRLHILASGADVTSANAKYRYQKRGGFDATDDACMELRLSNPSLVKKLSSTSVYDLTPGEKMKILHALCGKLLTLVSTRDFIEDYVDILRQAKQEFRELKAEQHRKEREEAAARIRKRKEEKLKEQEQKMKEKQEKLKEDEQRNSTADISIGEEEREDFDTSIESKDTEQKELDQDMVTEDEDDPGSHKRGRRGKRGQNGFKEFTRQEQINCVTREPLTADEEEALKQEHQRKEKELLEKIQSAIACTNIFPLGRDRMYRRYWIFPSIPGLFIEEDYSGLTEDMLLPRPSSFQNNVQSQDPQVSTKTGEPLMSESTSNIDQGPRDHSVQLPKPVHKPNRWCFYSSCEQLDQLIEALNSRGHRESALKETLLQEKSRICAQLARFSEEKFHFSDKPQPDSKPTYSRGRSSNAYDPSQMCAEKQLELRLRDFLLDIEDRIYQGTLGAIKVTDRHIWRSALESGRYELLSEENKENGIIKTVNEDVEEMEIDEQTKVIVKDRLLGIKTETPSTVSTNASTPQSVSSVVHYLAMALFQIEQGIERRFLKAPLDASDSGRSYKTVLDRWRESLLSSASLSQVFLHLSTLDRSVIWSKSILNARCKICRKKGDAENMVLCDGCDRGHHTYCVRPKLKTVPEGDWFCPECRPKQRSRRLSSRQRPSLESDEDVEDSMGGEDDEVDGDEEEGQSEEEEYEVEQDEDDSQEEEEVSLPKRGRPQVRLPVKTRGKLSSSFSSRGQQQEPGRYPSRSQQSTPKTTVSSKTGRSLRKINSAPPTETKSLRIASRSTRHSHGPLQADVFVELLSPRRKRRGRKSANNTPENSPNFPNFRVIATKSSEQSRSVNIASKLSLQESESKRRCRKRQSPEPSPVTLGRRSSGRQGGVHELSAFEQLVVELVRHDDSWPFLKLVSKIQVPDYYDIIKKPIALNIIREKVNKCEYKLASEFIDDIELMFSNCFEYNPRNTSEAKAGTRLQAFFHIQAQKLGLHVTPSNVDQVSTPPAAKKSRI
UniProt Q9H0E9, whole entry, looked up: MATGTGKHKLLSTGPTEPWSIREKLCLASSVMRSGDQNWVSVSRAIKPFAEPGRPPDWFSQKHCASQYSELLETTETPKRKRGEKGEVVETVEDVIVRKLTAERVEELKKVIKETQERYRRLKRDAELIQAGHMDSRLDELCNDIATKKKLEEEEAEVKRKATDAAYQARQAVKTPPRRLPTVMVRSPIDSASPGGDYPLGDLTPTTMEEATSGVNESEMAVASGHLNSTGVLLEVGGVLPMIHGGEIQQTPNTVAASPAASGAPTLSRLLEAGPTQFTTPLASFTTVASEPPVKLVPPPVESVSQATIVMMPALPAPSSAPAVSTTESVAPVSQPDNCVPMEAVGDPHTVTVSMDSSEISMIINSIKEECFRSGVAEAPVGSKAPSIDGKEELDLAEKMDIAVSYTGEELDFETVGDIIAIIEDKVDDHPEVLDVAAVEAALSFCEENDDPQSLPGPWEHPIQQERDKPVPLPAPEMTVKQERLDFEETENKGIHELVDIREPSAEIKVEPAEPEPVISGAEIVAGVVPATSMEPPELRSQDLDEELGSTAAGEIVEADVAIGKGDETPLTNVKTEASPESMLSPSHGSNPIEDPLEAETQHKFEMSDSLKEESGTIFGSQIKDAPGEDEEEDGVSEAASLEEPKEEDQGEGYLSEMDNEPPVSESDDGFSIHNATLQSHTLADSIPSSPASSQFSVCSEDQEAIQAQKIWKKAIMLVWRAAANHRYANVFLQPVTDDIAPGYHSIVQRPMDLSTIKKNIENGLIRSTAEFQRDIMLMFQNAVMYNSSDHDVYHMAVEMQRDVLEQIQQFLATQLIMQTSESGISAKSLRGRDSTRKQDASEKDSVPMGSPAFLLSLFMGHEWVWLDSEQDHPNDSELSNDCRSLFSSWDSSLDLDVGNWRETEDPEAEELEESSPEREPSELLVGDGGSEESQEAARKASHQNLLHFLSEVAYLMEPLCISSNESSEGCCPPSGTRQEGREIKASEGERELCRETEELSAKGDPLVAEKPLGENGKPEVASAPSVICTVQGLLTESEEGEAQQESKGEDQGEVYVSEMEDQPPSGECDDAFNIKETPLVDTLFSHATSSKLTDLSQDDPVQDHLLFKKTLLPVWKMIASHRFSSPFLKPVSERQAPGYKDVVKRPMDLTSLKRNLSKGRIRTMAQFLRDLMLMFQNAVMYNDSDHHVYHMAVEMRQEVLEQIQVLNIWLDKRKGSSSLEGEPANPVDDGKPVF
UniProt Q86WA6: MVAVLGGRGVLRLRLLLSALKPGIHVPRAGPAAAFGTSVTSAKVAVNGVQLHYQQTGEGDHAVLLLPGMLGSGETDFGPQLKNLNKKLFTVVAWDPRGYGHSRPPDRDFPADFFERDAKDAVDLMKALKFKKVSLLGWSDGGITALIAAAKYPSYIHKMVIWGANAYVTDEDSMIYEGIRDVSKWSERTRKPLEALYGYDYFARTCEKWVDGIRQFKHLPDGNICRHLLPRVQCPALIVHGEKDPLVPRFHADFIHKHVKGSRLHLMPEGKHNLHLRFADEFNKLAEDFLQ

This is one part of the list.

Compound in one assay: C1=CC=C(C=C1)[C@H](COC2=CC3=C(C=C2)NC(=O)N3)NC(=O)C4=CC=CN(C4=O)CC5=CC(=C(C=C5)F)F
As to the kind of experiment: log2 fold change, soluble protein after heating vs DMSO (PISA); higher = thermal stabilisation; K562 lysate, 10 uM; active = over 0.2 and 3.5 SD of the protein, either way, in both replicates (recomputed). In short, it runs like this:
(§1)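 To prepare the extract, K562 pellets were dounce-homogenised in PBS pH 7.4 with 1 mM MgCl2, giving crude material at 1 mg/mL protein. This was treated with 10 μM compound for 30 min, then heated in aliquots for 3 min over 48°C-58°C before pooling and addition of NP-40 to 0.5% at 4°C. Centrifugation at 21,000xg for 90 min left soluble protein in the supernatant, which TMTpro 16plex LC-MS/MS quantified with equalised channel sums. Results are log-two fold changes in thermal stability compared with solvent controls, from duplicates.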
With BCL9 (UniProt O00512), the log2 fold change was inactive: 0.13.

Consider BRD2 isoform 2 (UniProt P25440), for which the log2 fold change was inactive: 0.024.

As for BRD7 isoform 2 (UniProt Q9NPI1), the log2 fold change was inactive: -0.012.

For the target BCAS3 isoform 8 (UniProt Q9H6U6), the log2 fold change is inactive: 0.037.

As to BLOC1S3 (UniProt Q6QNY0), the log2 fold change is inactive: 0.021.

For BLM (UniProt P54132), the log2 fold change was inactive: 0.059.

For the target BDH2 (UniProt Q9BUT1), the log2 fold change is inactive: -0.037.

Consider BORCS7 (UniProt Q96B45), for which the log2 fold change was inactive: 0.1.

Regarding BCL10 (UniProt O95999), the log2 fold change was inactive: 0.049.

As to BRI3BP (UniProt Q8WY22), the log2 fold change is inactive: 0.016.

In the case of BCAT2 (UniProt O15382), the log2 fold change is inactive: 0.024.

With BET1L (UniProt Q9NYM9), the log2 fold change is inactive: 0.061.

For the target BRD3 (UniProt Q15059), the log2 fold change is inactive: 0.027.

Consider BRAT1 (UniProt Q6PJG6), for which the log2 fold change was inactive: -0.043.

Consider BLOC1S5 (UniProt Q8TDH9), for which the log2 fold change was inactive: 0.002.

Take BTBD1 (UniProt Q9H0C5): the log2 fold change was inactive: -0.064.

BAIAP2 (UniProt Q9UQB8): the log2 fold change is inactive: -0.016.

In the case of BAG5 isoform 2 (UniProt Q9UL15), the log2 fold change is inactive: 0.043.

For the target BTBD10 isoform 2 (UniProt Q9BSF8), the log2 fold change is inactive: -0.002.

As to BCL2L1 (UniProt Q07817), the log2 fold change was inactive: -0.108.

In the case of BCL7A isoform 2 (UniProt Q4VC05), the log2 fold change was inactive: 0.033.

On to BORCS5 (UniProt Q969J3), for which the log2 fold change was inactive: -0.12.

On to B4GALT1 (UniProt P15291), for which the log2 fold change is inactive: -0.005.

Consider BCKDHB (UniProt P21953), for which the log2 fold change was inactive: 0.027.

Take BCAT1 (UniProt P54687): the log2 fold change was inactive: 0.014.

Turning to BAZ1A (UniProt Q9NRL2), the log2 fold change was inactive: 0.084.

Turning to BAG2 (UniProt O95816), the log2 fold change was inactive: 0.013.

For the target BRD8 isoform 2 (UniProt Q9H0E9), the log2 fold change is inactive: 0.019.

Take BIRC2 (UniProt Q13490): the log2 fold change is inactive: -0.035.

As to BACH1 (UniProt O14867), the log2 fold change is inactive: 0.029.

Turning to BMP2K (UniProt Q9NSY1), the log2 fold change is inactive: -0.046.

Turning to BCCIP isoform 2 (UniProt Q9P287), the log2 fold change was inactive: 0.005.

As to BCL2L11 (UniProt O43521), the log2 fold change was inactive: 0.105.

BLOC1S4 (UniProt Q9NUP1): the log2 fold change was inactive: 0.017.

Turning to B4GAT1 (UniProt O43505), the log2 fold change was inactive: -0.108.

Regarding BPHL (UniProt Q86WA6), the log2 fold change is inactive: 0.284.

In the case of BAD (UniProt Q92934), the log2 fold change is inactive: 0.032.

As to BCL7B (UniProt Q9BQE9), the log2 fold change is inactive: 0.166.

Compound in the next assay: CC1=C(SC2=C1C(=N[C@H](C3=NN=C(N32)C)CC(=O)N)C4=CC=C(C=C4)Cl)C
The description is as above. An outline of the steps:
as §1
For BCL9 (UniProt O00512), the log2 fold change is inactive: 0.123.

Regarding BRD2 isoform 2 (UniProt P25440), the log2 fold change was active: 1.06.

BRD7 isoform 2 (UniProt Q9NPI1): the log2 fold change is inactive: 0.025.

Regarding BCAS3 isoform 8 (UniProt Q9H6U6), the log2 fold change was inactive: 0.016.

In the case of BLOC1S3 (UniProt Q6QNY0), the log2 fold change is inactive: -0.004.

Turning to BLM (UniProt P54132), the log2 fold change is inactive: 0.03.

For BDH2 (UniProt Q9BUT1), the log2 fold change was inactive: 0.049.

BORCS7 (UniProt Q96B45): the log2 fold change was inactive: 0.

Consider BCL10 (UniProt O95999), for which the log2 fold change is inactive: 0.014.

As to BRI3BP (UniProt Q8WY22), the log2 fold change is inactive: 0.121.

On to BCAT2 (UniProt O15382), for which the log2 fold change was inactive: 0.028.

On to BET1L (UniProt Q9NYM9), for which the log2 fold change is inactive: -0.007.

With BRD3 (UniProt Q15059), the log2 fold change was active: 0.631.

Take BRAT1 (UniProt Q6PJG6): the log2 fold change was inactive: -0.005.

Take BLOC1S5 (UniProt Q8TDH9): the log2 fold change is inactive: -0.022.

As to BTBD1 (UniProt Q9H0C5), the log2 fold change is inactive: -0.054.

With BAIAP2 (UniProt Q9UQB8), the log2 fold change is inactive: 0.006.

As to BAG5 isoform 2 (UniProt Q9UL15), the log2 fold change was inactive: 0.027.

Regarding BTBD10 isoform 2 (UniProt Q9BSF8), the log2 fold change was inactive: -0.022.

Turning to BCL2L1 (UniProt Q07817), the log2 fold change was inactive: 0.045.

With BCL7A isoform 2 (UniProt Q4VC05), the log2 fold change is inactive: -0.066.

BORCS5 (UniProt Q969J3): the log2 fold change was inactive: 0.

Turning to B4GALT1 (UniProt P15291), the log2 fold change is inactive: 0.03.

Consider BCKDHB (UniProt P21953), for which the log2 fold change is inactive: 0.023.

Consider BCAT1 (UniProt P54687), for which the log2 fold change was inactive: 0.02.

Regarding BAZ1A (UniProt Q9NRL2), the log2 fold change was inactive: 0.007.

With BAG2 (UniProt O95816), the log2 fold change is inactive: 0.002.

In the case of BRD8 isoform 2 (UniProt Q9H0E9), the log2 fold change is inactive: 0.005.

As for BIRC2 (UniProt Q13490), the log2 fold change was inactive: 0.021.

As for BACH1 (UniProt O14867), the log2 fold change is inactive: 0.017.

In the case of BMP2K (UniProt Q9NSY1), the log2 fold change was inactive: -0.121.

For the target BCCIP isoform 2 (UniProt Q9P287), the log2 fold change is inactive: 0.012.

As for BCL2L11 (UniProt O43521), the log2 fold change is inactive: -0.337.

In the case of BLOC1S4 (UniProt Q9NUP1), the log2 fold change is inactive: -0.03.

For B4GAT1 (UniProt O43505), the log2 fold change is inactive: -0.17.

As to BPHL (UniProt Q86WA6), the log2 fold change was inactive: 0.038.

Turning to BAD (UniProt Q92934), the log2 fold change was inactive: 0.

With BCL7B (UniProt Q9BQE9), the log2 fold change is inactive: 0.279.
